Measured values published in US8399515B2, “Five and fifteen carbon fatty acids for treating metabolic disorders and as nutritional supplements” (Baylor Research Institute, priority 2003, dated 2013).
For at least one compound, name, drawing or mass did not settle the structure.

Test system: MCAD-deficient fibroblasts
Assay: Fate of odd-carbon fatty acids in MCAD-deficient fibroblasts
Format: cell-based, human
Conditions: four MCAD patients' fibroblasts
Method: Fibroblasts obtained from patients with inherited defects of mitochondrial fat oxidation were cultured in the presence of omega deuterated odd-carbon numbered fatty acids, as described in Roe, C. R., Sweetman, L., Roe, D. S., David, F., Brunengraber, H., “Effective Dietary Treatment of Cardiomyopathy & Rhabdomyolysis in Long-Chain Fat Oxidation Disorders using an Anaplerotic Odd-Chain Triglyceride,” J. Clin. Invest. 110 (2): 259-269 (2002).
Fibroblasts from four patients with MCAD deficiency and one heterozygote (carrier) indicate that odd-carbon fatty acids containing more than seven carbons can not be effectively used in that disease. […]

SMILES | Oxidation of the fatty acid in MCAD deficient fibroblasts (in words)
CCCCCCCCC(=O)O [C9, nonanoate, reference compound] | accumulation of C9
CCCCCCC(=O)O [C7, heptanoate, reference compound] | blocked
